Data reported in patent US12195506B2, “Immunotherapy with A*01 restricted peptides and combination of peptides against cancers and related methods” (Immatics Biotechnologies GmbH, priority 2018, dated 2025).

Test system: HLA molecules of primary tumors and normal tissue samples
Assay: Identification and relative quantitation of HLA ligands by LC-MS (peptide presentation on tumor versus normal tissue)
Parameters: species or system human
Conditions: cancer entities on which the peptide was found presented (HLA ligands, LC-MS); abbreviations as in title of Table 8

237 (AQEAAVFLTLY; listed as Homo sapiens) [compound 237]
Peptide Presentation on cancer entities: SCLC

238 (ETDWGLLKGHTY; listed as Homo sapiens) [compound 238]
Peptide Presentation on cancer entities: BRCA

239 (SSERGSPIEKY; listed as Homo sapiens) [compound 239]
Peptide Presentation on cancer entities: OSCAR

240 (EVLDSLLAQY; listed as Homo sapiens) [compound 240]
Peptide Presentation on cancer entities: OSCAR

242 (GTNLPTLLW; listed as Homo sapiens) [compound 242]
Peptide Presentation on cancer entities: HCC, OSCAR

243 (LTSEDTGAY; listed as Homo sapiens) [compound 243]
Peptide Presentation on cancer entities: NSCLCadeno

244 (VTKYIAGPY; listed as Homo sapiens) [compound 244]
Peptide Presentation on cancer entities: BRCA

245 (LSDNAANRY; listed as Homo sapiens) [compound 245]
Peptide Presentation on cancer entities: AML

246 (ARLEGEIATY; listed as Homo sapiens) [compound 246]
Peptide Presentation on cancer entities: NSCLCsquam

247 (SMIRVGTNY; listed as Homo sapiens) [compound 247]
Peptide Presentation on cancer entities: NSCLCsquam, OC

250 (GYVCNACGLY; listed as Homo sapiens) [compound 250]
Peptide Presentation on cancer entities: HNSCC

251 (GIEMTYETY; listed as Homo sapiens) [compound 251]
Peptide Presentation on cancer entities: GBC

253 (YLESHGLAY; listed as Homo sapiens) [compound 253]
Peptide Presentation on cancer entities: NSCLCsquam

254 (FLFNDALLY; listed as Homo sapiens) [compound 254]
Peptide Presentation on cancer entities: BRCA

255 (WELDSLEY; listed as Homo sapiens) [compound 255]
Peptide Presentation on cancer entities: GBM

258 (RPSSVLTIY; listed as Homo sapiens) [compound 258]
Peptide Presentation on cancer entities: GBM, MEL, NSCLCsquam

259 (APDEVVALL; listed as Homo sapiens) [compound 259]
Peptide Presentation on cancer entities: MEL

260 (KPTEDSANVY; listed as Homo sapiens) [compound 260]
Peptide Presentation on cancer entities: OSCAR

261 (MTEGSTVNTEY; listed as Homo sapiens) [compound 261]
Peptide Presentation on cancer entities: GBC, GC

263 (DCMDTEGSYM; listed as Homo sapiens) [compound 263]
Peptide Presentation on cancer entities: UEC

267 (IVADDTVY; listed as Homo sapiens) [compound 267]
Peptide Presentation on cancer entities: NSCLCadeno, NSCLCother

269 (LPSPAATIWDY; listed as Homo sapiens) [compound 269]
Peptide Presentation on cancer entities: GBC

270 (DLKIDLAAQY; listed as Homo sapiens) [compound 270]
Peptide Presentation on cancer entities: OSCAR

271 (VAEPPVVCSY; listed as Homo sapiens) [compound 271]
Peptide Presentation on cancer entities: HCC

272 (IPQDECLRY; listed as Homo sapiens) [compound 272]
Peptide Presentation on cancer entities: GBC, HNSCC

273 (CGPNEINHFY; listed as Homo sapiens) [compound 273]
Peptide Presentation on cancer entities: NSCLCsquam

274 (YADIHGDLL; listed as Homo sapiens) [compound 274]
Peptide Presentation on cancer entities: RCC

275 (ESDEMENLLTY; listed as Homo sapiens) [compound 275]
Peptide Presentation on cancer entities: BRCA

277 (LPAPGFLFY; listed as Homo sapiens) [compound 277]
Peptide Presentation on cancer entities: GBC

278 (AATVKSDIY; listed as Homo sapiens) [compound 278]
Peptide Presentation on cancer entities: NSCLCsquam

279 (LMTVLLKY; listed as Homo sapiens) [compound 279]
Peptide Presentation on cancer entities: BRCA

282 (QAMPSWPTAAY; listed as Homo sapiens) [compound 282]
Peptide Presentation on cancer entities: NSCLCsquam

283 (ETILVSSSY; listed as Homo sapiens) [compound 283]
Peptide Presentation on cancer entities: NSCLCadeno

284 (TCSHTFVYY; listed as Homo sapiens) [compound 284]
Peptide Presentation on cancer entities: NSCLCadeno, SCLC

285 (VLPHHSEGACVY; listed as Homo sapiens) [compound 285]
Peptide Presentation on cancer entities: NSCLCadeno, OC

286 (ATDMEGNLNY; listed as Homo sapiens) [compound 286]
Peptide Presentation on cancer entities: BRCA, GBM, NSCLCadeno

287 (ENSIEDLQY; listed as Homo sapiens) [compound 287]
Peptide Presentation on cancer entities: HCC

289 (YTSHEDIGY; listed as Homo sapiens) [compound 289]
Peptide Presentation on cancer entities: NSCLCadeno

290 (GQFTGTAGACRY; listed as Homo sapiens) [compound 290]
Peptide Presentation on cancer entities: NSCLCadeno, OC

291 (TSDVTGSLTY; listed as Homo sapiens) [compound 291]
Peptide Presentation on cancer entities: NSCLCother

294 (MMEMEGMY; listed as Homo sapiens) [compound 294]
Peptide Presentation on cancer entities: NSCLCsquam

296 (HMLAAMAY; listed as Homo sapiens) [compound 296]
Peptide Presentation on cancer entities: BRCA, MEL, NHL, NSCLCadeno, NSCLCother, NSCLCsquam, OC, RCC

297 (RLDEAMISY; listed as Homo sapiens) [compound 297]
Peptide Presentation on cancer entities: UBC

298 (KFDVINHYF; listed as Homo sapiens) [compound 298]
Peptide Presentation on cancer entities: BRCA

299 (EVDSVALSL; listed as Homo sapiens) [compound 299]
Peptide Presentation on cancer entities: MEL

301 (ESQTCASDY; listed as Homo sapiens) [compound 301]
Peptide Presentation on cancer entities: GBC, NSCLCother

302 (FYLSTPENYHY; listed as Homo sapiens) [compound 302]
Peptide Presentation on cancer entities: BRCA

303 (GFGGLSSQGVYY; listed as Homo sapiens) [compound 303]
Peptide Presentation on cancer entities: CCC, HNSCC

304 (FSENLIYTYI; listed as Homo sapiens) [compound 304]
Peptide Presentation on cancer entities: MEL

306 (KSFETTVRY; listed as Homo sapiens) [compound 306]
Peptide Presentation on cancer entities: MEL, OSCAR

307 (DTDDRELRY; listed as Homo sapiens) [compound 307]
Peptide Presentation on cancer entities: GBM, HCC, UEC

308 (ELAAGQVVY; listed as Homo sapiens) [compound 308]
Peptide Presentation on cancer entities: CLL, OSCAR
